Data on 21 molecules can be found in patent publication US12281162 (LANOVA MEDICINES DEVELOPMENT, dated 2025).

Protein sequences, listed by entry. Tags and fused reporters are not part of them.
UniProt Q9NZD1: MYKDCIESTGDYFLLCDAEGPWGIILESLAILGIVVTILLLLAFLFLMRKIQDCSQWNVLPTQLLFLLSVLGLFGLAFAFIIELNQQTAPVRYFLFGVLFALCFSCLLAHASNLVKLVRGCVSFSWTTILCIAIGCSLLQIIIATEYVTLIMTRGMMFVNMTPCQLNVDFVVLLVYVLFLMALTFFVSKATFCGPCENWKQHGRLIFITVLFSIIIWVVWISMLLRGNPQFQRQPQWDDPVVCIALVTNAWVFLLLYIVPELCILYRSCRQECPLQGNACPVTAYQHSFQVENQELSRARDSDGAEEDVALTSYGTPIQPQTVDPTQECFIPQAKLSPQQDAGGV

These are yes or no findings as the source states them, for the method shown. Some entries that bind do so weakly or less than the wild type.

Assay [1] has as its target human G-protein-coupled receptor family C group 5 member D (GPRC5D) (human) (UniProt Q9NZD1). Kind of assay: FACS, CHO-K1/human GPRC5D, hybridoma supernatant. Background: A flow cytometer gives signals particle by particle.
The target is the same in assay [2]. Kind of assay: FACS, CHO-K1/GPRC5D.

B1: 37B9C4 (antibody, V domains shown)
VH: EVNLEESGGGLVQPGGSMKLSCVASGFTFSDYWMNWVRQSPEKGLEWVAEIRLKSNNYATHYAESVKGRFTISRDDSKSSVYLQMNNLRAEDTGIYYCTRPLLWFRRYYAMDYWGQGTSVTVSS
VL: DIQMTQTTSSLSASLGDRITISCSASQGISNYLNWYQQKPDGTVKLLIYYTSSLHSGVPSRFSGSGSGTDYSLTISNLEPADIATYYCQQYSKLPFTFGSGTKLEIK
notes: murine antibody from hybridoma supernatant
For the molecule B1, in assay [1], the binding entry is reported as “binds”.

B2: 2D3C12 (antibody, V domains shown)
VH: QVQLQQSGAELVRPGTSVKVSCKASGYAFINYLIEWIKQRPGQGLEWIGMINPGSGGTNYNEKFKDKATLTADKSSSTAYMQLSSLTSDDSAVYFCARNWDVWGQGTTLTVSS
VL: DVVMTQSPLSLPVSLGDQASVSCRSSQSLVHSTGNTYLHWYLQKPGQSPKLLIYKVSNRFSGVPDRFSGSGSGTDFTLKISRVEAEDLGVYFCSQSTHVPWTFGGGTKLEIK
notes: as for B1
As to B2, in assay [1], the binding entry is recorded as “binds”.

B3: 21C3C11B3 (antibody, V domains shown)
VH: QVQLQQSGAELVRPGTSVKVSCKASGYAFINYLIEWIKQRPGQGLEWIGMINPGSGGTNYNEKFKDKATLTADKSSSTAYMQLSSLTSDDSAVYFCARNWDVWGQGTTLTVSS
VL: DVVMTQSPLSLPVSLGDQASVSCRSSQSLVHSTGNTYLHWYLQKPGQSPKLLIYKVSNRFSGVPDRFSGSGSGTDFTLKISRVEAEDLGVYFCSQSTHVPWTFGGGTKLEIK
notes: as for B1
B3: the binding entry in assay [1] is recorded as “binds”.

B4: 34D4A10 (antibody, V domains shown)
VH: QVQLQQSGAELVRPGTSVKVSCKASGYAFISYLIEWIKQRPGQGLEWIGMINPGSGGTNYNEKFKDKATLTADKSSSTAYMQLSSLTSDDSAVYFCARNWDVWGQGTTLTVSS
VL: DVVMTQSPLSLPVSLGDQASVSCRSSQSLVHSTGNTYLHWYLQKPGQSPKLLIYKVSNRFSGVPDRFSGSGSGTDFTLKISRVEAEDLGVYFCSQSTHVPWTFGGGTKLEIK
notes: as for B1
Take B4: in assay [1], the binding entry is listed as “binds”.

B5: 34D3H1 (antibody, V domains shown)
VH: EVHLVESGGDLVKPGGSLKLSCAASGFTFSSYGMSWVRQTPDKRLEWVATISSGGSYTYYPDSVKGRFTISRDNAKNTLNLQMSSLKSEDTAMYYCARQGGDAMDYWGQGTSVTVSS
VL: DIVLTQSPATLSVTPGDSVSLSCRASQSINNNLHWYQQKSHESPRLLIKYASQSISGIPSRFSGSGSGTDFTLSINSVETEDFGMYFCQQSNSRLTFGAGTKLELK
notes: as for B1
Regarding B5, the binding result in assay [1] is recorded as “binds”.

B6: 14C2A11C6 (antibody, V domains shown)
VH: QVHLQQSGAELARPGASVKMSCKASGYTFTTYTMHWVKQRPGQGLEWIGYINPNSAYTNYNQKFKDKATLTADKSSSTAYMQLSSLTSEDSAVYYCARRVLLLRVLDFFDYWGQGTTLTVSS
VL: DVQITQSPSYLAASPGETITINCRASKSINKYLTWYQEKPGKTNKLLIYSGSTLQSGIPSRFSGSGSGSDFTLTISSLEPEDFAMYYCQQHNEYPLTFGTGTKLELK
notes: murine antibody from hybridoma supernatant; also called 14C2A1106
Consider B6, for which the binding result in assay [1] is “binds”.

B7: 40A5B2 (antibody, V domains shown)
VH: EVQLQQSGPELVKPGASVKMSCKASGYTFTRNIMHWVKQKPGQGLEWIGYINPYNAGSKYNEKFKGKATLTSDISSSTAYMELSSLTSEDSAVYYCAREEVYYRYGAWFAYWGHGTLVTVSA
VL: DIVLTQSPASLAVSLGQRATISCRASQSVSTSSYSYMHWYQQKPGQPPKLLIKYASNLESGVPARFSGSGSGTDFTLNIHPVEEEDTATYYCQHSWEIPRTFGGGTKLEIK
notes: as for B1
As to B7, the binding result in assay [1] is recorded as “binds”.

B8: 37-H2L2 (antibody, V domains shown)
VH: EVQLVESGGGLVQPGGSLRLSCAASGFTFSDYWMNWVRQSPGKGLEWVAEIRLKSNNYATHYAESVKGRFTISRDNAKSSLYLQMNSLRAEDTAVYYCTRPLLWFRRYYAMDYWGQGTLVTVSS
VL: DIQMTQSPSSLSASVGDRVTITCSASQGISNYLNWYQQKPGKTVKLLIYYTSSLHSGVPSRFSGSGSGTDYTLTISSLQPEDFATYYCQQYSKLPFTFGQGTKLEIK
notes: humanized 37B9C4, VH v2 x VL v2
On to B8, for which, in assay [2], the binding result is “binds”.

B9: 37-H3L3 (antibody, V domains shown)
VH: EVQLVESGGGLVQPGGSLRLSCAASGFTFSDYWMNWVRQSPGKGLEWVAEIRLKSNNYATHYAESVKGRFTISRDDSKSSVYLQMNSLRAEDTAVYYCTRPLLWFRRYYAMDYWGQGTLVTVSS
VL: DIQMTQSPSSLSASVGDRITITCSASQGISNYLNWYQQKPGKTVKLLIYYTSSLHSGVPSRFSGSGSGTDYTLTISSLQPEDFATYYCQQYSKLPFTFGSGTKLEIK
notes: humanized 37B9C4, VH v3 x VL v3
As for B9, the binding result in assay [2] is “binds”.

B10: 37-H1L2 (antibody, V domains shown)
VH: EVQLVESGGGLVQPGGSLRLSCAASGFTFSDYWMNWVRQAPGKGLEWVAEIRLKSNNYATHYAESVKGRFTISRDNAKNSLYLQMNSLRAEDTAVYYCARPLLWFRRYYAMDYWGQGTLVTVSS
VL: DIQMTQSPSSLSASVGDRVTITCSASQGISNYLNWYQQKPGKTVKLLIYYTSSLHSGVPSRFSGSGSGTDYTLTISSLQPEDFATYYCQQYSKLPFTFGQGTKLEIK
notes: humanized 37B9C4, VH v1 x VL v2
Regarding B10, the binding entry in assay [2] is “binds”.

B11: 37-H1L3 (antibody, V domains shown)
VH: EVQLVESGGGLVQPGGSLRLSCAASGFTFSDYWMNWVRQAPGKGLEWVAEIRLKSNNYATHYAESVKGRFTISRDNAKNSLYLQMNSLRAEDTAVYYCARPLLWFRRYYAMDYWGQGTLVTVSS
VL: DIQMTQSPSSLSASVGDRITITCSASQGISNYLNWYQQKPGKTVKLLIYYTSSLHSGVPSRFSGSGSGTDYTLTISSLQPEDFATYYCQQYSKLPFTFGSGTKLEIK
notes: humanized 37B9C4, VH v1 x VL v3
Turning to B11, the binding result in assay [2] is listed as “binds”.

B12: 37-H3L1 (antibody, V domains shown)
VH: EVQLVESGGGLVQPGGSLRLSCAASGFTFSDYWMNWVRQSPGKGLEWVAEIRLKSNNYATHYAESVKGRFTISRDDSKSSVYLQMNSLRAEDTAVYYCTRPLLWFRRYYAMDYWGQGTLVTVSS
VL: DIQMTQSPSSLSASVGDRVTITCSASQGISNYLNWYQQKPGKAPKLLIYYTSSLHSGVPSRFSGSGSGTDFTLTISSLQPEDFATYYCQQYSKLPFTFGQGTKLEIK
notes: humanized 37B9C4, VH v3 x VL v1
Regarding B12, the binding entry in assay [2] was “binds”.

B13: 37-H3L2 (antibody, V domains shown)
VH: EVQLVESGGGLVQPGGSLRLSCAASGFTFSDYWMNWVRQSPGKGLEWVAEIRLKSNNYATHYAESVKGRFTISRDDSKSSVYLQMNSLRAEDTAVYYCTRPLLWFRRYYAMDYWGQGTLVTVSS
VL: DIQMTQSPSSLSASVGDRVTITCSASQGISNYLNWYQQKPGKTVKLLIYYTSSLHSGVPSRFSGSGSGTDYTLTISSLQPEDFATYYCQQYSKLPFTFGQGTKLEIK
notes: humanized 37B9C4, VH v3 x VL v2
Turning to B13, in assay [2], the binding entry is listed as “binds”.

B14: 37-H2L3 (antibody, V domains shown)
VH: EVQLVESGGGLVQPGGSLRLSCAASGFTFSDYWMNWVRQSPGKGLEWVAEIRLKSNNYATHYAESVKGRFTISRDNAKSSLYLQMNSLRAEDTAVYYCTRPLLWFRRYYAMDYWGQGTLVTVSS
VL: DIQMTQSPSSLSASVGDRITITCSASQGISNYLNWYQQKPGKTVKLLIYYTSSLHSGVPSRFSGSGSGTDYTLTISSLQPEDFATYYCQQYSKLPFTFGSGTKLEIK
notes: humanized 37B9C4, VH v2 x VL v3
Take B14: in assay [2], the binding entry is on record as “binds”.

B15: 37-H2L1 (antibody, V domains shown)
VH: EVQLVESGGGLVQPGGSLRLSCAASGFTFSDYWMNWVRQSPGKGLEWVAEIRLKSNNYATHYAESVKGRFTISRDNAKSSLYLQMNSLRAEDTAVYYCTRPLLWFRRYYAMDYWGQGTLVTVSS
VL: DIQMTQSPSSLSASVGDRVTITCSASQGISNYLNWYQQKPGKAPKLLIYYTSSLHSGVPSRFSGSGSGTDFTLTISSLQPEDFATYYCQQYSKLPFTFGQGTKLEIK
notes: humanized 37B9C4, VH v2 x VL v1
For B15, the binding entry in assay [2] is recorded as “binds”.

B16: 6G10D9 (antibody, V domains shown)
VH: QVQLQQSGAELARPGASVKMSCKASGYTFTTYTMHWVKQRPGQGLEWLGYINPSSGYTNYNQKFKDKATLTAGKSSSTAYMQLSSLTSEDSAVYYCASLRSRGYFDYWGQGTTLTVSS
VL: DIVMTQSQTFMSTSVGDRVRITCKASQNVGTAVVWYQQKTGQSPRLLIYSASNRYTGVPDRFTGSGSGTDFTLTISNMQSEDLADFFCQQYSSYPYTFGGGTKLEIK
notes: as for B1
As for B16, the binding result in assay [1] is listed as “binds”.

B17: 38A10E9A11 (antibody, V domains shown)
VH: QVQLQQSGAELARPGASVKMSCKASGYTFTTYTMHWVKQRPGQGLEWIGYINPSSGYTNYNQKFKDKATLTAGKSSSTAYMQLSSLTSEDSAVYYCASLRSRGYFDYWGRGTTLTVSS
VL: DIVMTQSQKFLSTSVGDRVSITCKASQNVGTAVAWYQQKPGQSPKLLIYSASNRYTGVPDRFTGSGSGTDFTLTISNMQSEDLAGYFCQQYSSYPYTFGGGTKLEIK
notes: as for B1
For the molecule B17, the binding result in assay [1] is listed as “binds”.

B18: 29B2C10 (antibody, V domains shown)
VH: EVQLQQSGPELVKPGASMKLSCKASGYSFTGYTMHWVKQSHGENLEWIGLINPYNGGTNYNQKFKGKATLTVDKSSSTAYMELLSLTSEDSAVYYCSRWGLRRAMDYWGQGTSVTVSS
VL: DIVMTQSQKFMSTSVGDRVSVTCKASQNVGSNVAWYQQKPGQSPKALIYSASYRYSGVPDRFTGNGSGTDFTLTISNVQSEDLAEYFCQQYYNSPWTFGGGTKLEIK
notes: as for B1
Regarding B18, the binding result in assay [1] is given as “binds”.

B19: 26E1D12 (antibody, V domains shown)
VH: EVQLQQSGPELVKPGASMKISCKASGYSFTGYTMNWVKQSHGKNLEWIGLINPYNGGTNYNQKFKGKATLAVDKSSSTAYMDLLSLTSEDSAVYYCSRWGLRRAMDYWGQGTSVTVSS
VL: DIVMTQSQKFMSTSVGDRVSVTCKASQNVGSNVAWYQQKPGQSPKALIYSASYRYSGVPDRFTGSGSGTDFTLTISNVQSEDLAEYFCQQYNNSPWTFGGGTKLEIK
notes: as for B1
B19: in assay [1], the binding result was “binds”.

B20: 29A7H11H4C12 (antibody, V domains shown)
VH: EVQLQQSGPELVKPGASMKISCKASGYSFTGYTMHWVKQSHGENLEWIGLINPYNGGTNYNQKFKGKATLTVDKSSSTAYMELLSLTSEDSAVYYCSRWGLRRAMDYWGQGTSVTVSS
VL: DIVMTQSQKFMSTSIGDRVSVTCKASQNVGSNVAWYQQKPGQSPKALIYSASYRYSGVPDRFTGNGSGTDFTLTISNVQSEDLAEYFCQQYYNSPWTFGGGTKLEIK
notes: as for B1
With B20, the binding result in assay [1] is “binds”.

B21: 14F3H2 (antibody, V domains shown)
VH: EVQLQQSGPELVKPGASMKISCKASGYSFTGYTMNWVKQSHGKNLEWIGLINPYNGGIRYNQKFKGKATLTVDKSSSTAYMELLSLTSEDSAVYYCARWGLRRAMDYWGQGTSVTVSS
VL: DIVMTQSQKFMSTSVGDRVSVTCKASQNVGTNVAWYQQKPGQSPKALIYSASYRYSGVPDRFTGSGSGTDFTLTISNVQSEDLAEYFCQQYNSSPWTFGGGTKLEIK
notes: as for B1
With B21, in assay [1], the binding entry was “binds”.
